Earlier results, collected in patent US11572369B2, “Bicyclic pyridine compositions and methods of using the same for cancer therapy” (UNIVERSITY OF SOUTH CAROLINA, priority 2019, dated 2023).
For at least one compound, name, drawing or mass did not settle the structure.

System: alkaline phosphatase (ALPase) in bone marrow stromal cell line ST2
Conditions: concentration that enhances ALPase activity to 200% of control; ST2 cells; Saito (2013); cited from earlier work

CNC(=O)c1ccc(N2CCCN(c3ccnc4sc(C(N)=O)c(N)c34)CC2)cc1 [15v]
ALP activity Assay EC200: 54.2 nM
